Assay results from PMC6434776.
For at least one entry, the source does not settle the construct or the ends of the probe.

Test system: bZIP60(s), spliced form (Nicotiana attenuata)
Assay: EMSA
Settings: 300 ng protein, 30 ng probe, Chemiluminescent EMSA kit (Beyotime), manufacturer's protocol, 30 ng biotin probe, pH and temperature not stated, recombinant protein, protein details: His (pET28a), label: biotin

## AATTTTTTTTACGTAAATGATTTTCTTTTACCTGAAAATTTCCCTTGA (double strand) [FBP1]
Excess unlabeled FBP1 competes
  binding result: binds

## TAAGGGGCGTGAAAAGTTCAAAGT (double strand) [FBP2]
Excess unlabeled FBP2 competes
  binding result: binds

## TTTTGCACTCAGTCAGGCTAAAATCG (double strand) [FBP3]
Excess unlabeled FBP3 competes
  binding result: binds
